Data reported in PMC9023175.
These are yes or no findings as the source states them, for the method shown. Binding seen in cells or lysates may run through a third protein. Some results given as binding are weak or reduced against the parent protein; the word gives no strength.

Biological target: T1, Receptor-interacting protein 3 (rat (endogenous in NRCMs)) (UniProt Q9Z2P5)
T1 sequence: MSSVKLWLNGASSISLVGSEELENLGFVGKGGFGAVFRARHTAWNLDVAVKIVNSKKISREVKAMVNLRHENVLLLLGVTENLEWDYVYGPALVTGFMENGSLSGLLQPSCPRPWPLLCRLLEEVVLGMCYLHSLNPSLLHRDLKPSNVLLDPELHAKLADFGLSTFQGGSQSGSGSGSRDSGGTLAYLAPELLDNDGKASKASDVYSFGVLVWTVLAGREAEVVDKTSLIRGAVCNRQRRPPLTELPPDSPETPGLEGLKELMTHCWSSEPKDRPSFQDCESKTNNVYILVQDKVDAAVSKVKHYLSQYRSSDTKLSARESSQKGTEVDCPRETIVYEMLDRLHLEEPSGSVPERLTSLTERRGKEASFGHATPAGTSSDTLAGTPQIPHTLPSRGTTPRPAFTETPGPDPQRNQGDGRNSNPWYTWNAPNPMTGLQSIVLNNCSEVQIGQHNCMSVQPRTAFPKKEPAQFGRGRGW
Test: co-IP; NRCM lysate (50 mmol/l Tris-HCl pH 7.5, 150 mmol/l NaCl, 0.5% NP-40) incubated with RIP3 antibody and protein-G magnetic beads at 4°C overnight; MLKL detected by Western blot; cells treated with PE (interaction enhanced by PE)

B1: Mixed lineage kinase domain-like protein (protein, UniProt D3ZKP6 1-462)
chain: MDKLGQIIKLGQLIYDQCEKMKYCKRQCRRLRNRVHGLLQPLQRLQAQEKKSLPSDITAALGRFEDVLKEARQQIEKFSQKSNIWKFATVGSDKILFHEVNEKLRDIWEELLLLLQVDQWKSDSEVSQPASWQQEDQQDAEEDGNENMKVILVKLQISMEEIKEALKQCSLKPMQEVPQDFQVKEIPKEDLGYPWTKLKTNKLSTIYRGEYYKSPVTIKVFNNPKAESVGIVRLTFNEEIKTMKKFDSPNILRIFGICIDQTVKPPEFSIVMEYCELGTLRELLDRDKDLTMSVRSLLVLRAARGLYRLHHSGTLHGNISSSSFLVAGGYQVKLAGFELSKTQTSISRATKSTKAERFSSTAYVSPERLQDPFCKYDTKAEIYSFGIVLWEIATGKIPFEGCDSEKIYELVAENKKQEPVGQDCPELLQEIINECRAHEPSNRPSADGRILSLPQMENTRQS
Q: How did the binding turn out when B1 was run?
A: The binding was “binds”.
